Data: the supplement of paper PMC4604168 (melanoma cell lines)
The other results are listed elsewhere or left out. Repeats are few or missing, and single values can be far off.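 Imaging used 1,536-well plates; nuclei positive for cleaved PARP by antibody were divided by total DNA-stained nuclei to yield the apoptosis fraction. Doses for screening kept most cells viable, and cell lines differ markedly in resting and induced cleaved-PARP levels.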

Legend:
Assay in all cases: cleaved PARP positive nuclei fraction relative to DMSO control; melanoma cells; higher = more apoptosis
Conditions in all cases: library dose: low library concentration; 72 h
[1] = tested on: MeWo
[2] = tested on: RPMI7951
[3] = tested on: RVH-421
[4] = tested on: SkMel28
[5] = tested on: SkMel2
[6] = tested on: SkMel30
[7] = tested on: SkMel5
[8] = tested on: UACC257
[9] = tested on: UACC62
[10] = tested on: MZ2-MEL

Compound	cleaved PARP positive nuclei fraction [1]	cleaved PARP positive nuclei fraction [2]	cleaved PARP positive nuclei fraction [3]	cleaved PARP positive nuclei fraction [4]	cleaved PARP positive nuclei fraction [5]	cleaved PARP positive nuclei fraction [6]	cleaved PARP positive nuclei fraction [7]	cleaved PARP positive nuclei fraction [8]	cleaved PARP positive nuclei fraction [9]	cleaved PARP positive nuclei fraction [10]
CN(c1ncccc1CNc1nc(Nc2ccc3c(c2)CC(=O)N3)ncc1C(F)(F)F)S(C)(=O)=O + CO[C@@H]1[C@H](N(C)C(=O)c2ccccc2)C[C@H]2O[C@]1(C)n1c3ccccc3c3c4c(c5c6ccccc6n2c5c31)C(=O)NC4 [Midostaurin] (first compound 0.08 µM, partner dose 0.08 µM)	161%	92.2%	72.9%	30.3%	90.8%	76%	77.5%	55.1%	78%	
CCN(CC)CCNC(=O)c1c(C)[nH]c(/C=C2\C(=O)Nc3ccc(F)cc32)c1C [sunitinib] + CO[C@H]1C[C@@H]2CC[C@@H](C)[C@@](O)(O2)C(=O)C(=O)N2CCCC[C@H]2C(=O)O[C@H]([C@H](C)C[C@@H]2CC[C@@H](OCCO)[C@H](OC)C2)CC(=O)[C@H](C)/C=C(\C)[C@@H](O)[C@@H](OC)C(=O)[C@H](C)C[C@H](C)/C=C/C=C/C=C/1C [everolimus] (first compound 0.4 µM, partner dose 0.02 µM)	173%	105%	214%	371%		104%			481%	131%
CC(=O)O[C@@]12CO[C@@H]1C[C@H](O)[C@@]1(C)C(=O)[C@H](O)C3=C(C)[C@@H](OC(=O)[C@H](O)[C@@H](NC(=O)OC(C)(C)C)c4ccccc4)C[C@@](O)([C@@H](OC(=O)c4ccccc4)[C@H]21)C3(C)C [Docetaxel] + Cc1cc([N+](=O)[O-])ccc1NS(=O)(=O)c1cc(Cl)ccc1Cl [FH535] (first compound 0.0001 µM, partner dose 1 µM)	110%	349%	103%	324%	485%	51.6%	87.1%	163%	498%	
CCCCCCCCc1ccc(CCC(N)(CO)CO)cc1 [fingolimod] + CO[C@H]1C[C@@H]2CC[C@@H](C)[C@@](O)(O2)C(=O)C(=O)N2CCCC[C@H]2C(=O)O[C@H]([C@H](C)C[C@@H]2CC[C@@H](OCCO)[C@H](OC)C2)CC(=O)[C@H](C)/C=C(\C)[C@@H](O)[C@@H](OC)C(=O)[C@H](C)C[C@H](C)/C=C/C=C/C=C/1C [everolimus] (first compound 2 µM, partner dose 0.02 µM)	72.8%	147%	251%	319%		53.5%			517%	112%
NC1(c2ccc(-c3nc4ccn5c(=O)[nH]nc5c4cc3-c3ccccc3)cc2)CCC1 + Nc1ccn([C@@H]2O[C@H](CO)[C@@H](O)C2(F)F)c(=O)n1 [gemcitabine] (first compound 0.4 µM, partner dose 0.0004 µM)	129%	101%	115%	143%		88.9%			112%	104%
C[C@]1(O)C[C@@H](c2nc(-c3ccc4ccc(-c5ccccc5)nc4c3)c3c(N)nccn32)C1 + COc1ccc(-c2ccc3c(N4CCOCC4)nc(N4C[C@@H](C)O[C@@H](C)C4)nc3n2)cc1CO [KU0063794] (first compound 0.4 µM, partner dose 0.02 µM)	85.1%	121%	125%	122%	213%	141%	207%	317%	117%	
CS(=O)(=O)c1ccc(C(=O)Nc2ccc(Cl)c(-c3ccccn3)c2)c(Cl)c1 [vismodegib] + CN(NC(=O)CC(=O)NN(C)C(=S)c1ccccc1)C(=S)c1ccccc1 [STA4783] (first compound 1 µM, partner dose 0.006 µM)	36.3%	79.1%	182%	25.4%	95.7%	242%	130%	92.6%	222%	
NC1(c2ccc(-c3nc4ccn5c(=O)[nH]nc5c4cc3-c3ccccc3)cc2)CCC1 + CO[C@H]1C[C@@H]2CC[C@@H](C)[C@@](O)(O2)C(=O)C(=O)N2CCCC[C@H]2C(=O)O[C@H]([C@H](C)C[C@@H]2CC[C@@H](OCCO)[C@H](OC)C2)CC(=O)[C@H](C)/C=C(\C)[C@@H](O)[C@@H](OC)C(=O)[C@H](C)C[C@H](C)/C=C/C=C/C=C/1C [everolimus] (first compound 0.4 µM, partner dose 0.02 µM)	144%	106%	39%	234%		319%			379%	127%
Cn1cnc2c(F)c(Nc3ccc(Br)cc3Cl)c(C(=O)NOCCO)cc21 [selumetinib] + COCC[n+]1c2c(n(Cc3cnccn3)c1C)C(=O)c1ccccc1C2=O [YM155] (first compound 0.015 µM, partner dose 0.0004 µM)	111%	43.1%	182%	46.9%		127%			139%	219%
CN(c1ncccc1CNc1nc(Nc2ccc3c(c2)CC(=O)N3)ncc1C(F)(F)F)S(C)(=O)=O + Cc1nc(Nc2ncc(C(=O)Nc3c(C)cccc3Cl)s2)cc(N2CCN(CCO)CC2)n1 [dasatanib] (first compound 0.08 µM, partner dose 0.004 µM)	100%	230%	327%	57.2%		82.6%			203%	231%
CC1(C)CCC(c2ccc(Cl)cc2)=C(CN2CCN(c3ccc(C(=O)NS(=O)(=O)c4ccc(N[C@H](CCN5CCOCC5)CSc5ccccc5)c(S(=O)(=O)C(F)(F)F)c4)cc3)CC2)C1 + CS(=O)(=O)CCNCc1ccc(-c2ccc3ncnc(Nc4ccc(OCc5cccc(F)c5)c(Cl)c4)c3c2)o1 [lapatinib] (first compound 0.4 µM, partner dose 0.8 µM)	557%	178%	112%	84.2%		446%			77.9%	256%
C[C@]1(O)C[C@@H](c2nc(-c3ccc4ccc(-c5ccccc5)nc4c3)c3c(N)nccn32)C1 + C[C@@H]1CCN(C(=O)CC#N)C[C@@H]1N(C)c1ncnc2[nH]ccc12 [CP690550] (first compound 0.4 µM, partner dose 1 µM)	49%	75.4%	47.5%	55.4%	177%	157%	135%	80.9%	155%	
CC(=O)O[C@@]12CO[C@@H]1C[C@H](O)[C@@]1(C)C(=O)[C@H](O)C3=C(C)[C@@H](OC(=O)[C@H](O)[C@@H](NC(=O)OC(C)(C)C)c4ccccc4)C[C@@](O)([C@@H](OC(=O)c4ccccc4)[C@H]21)C3(C)C [Docetaxel] + CO[C@H]1C[C@@H]2CC[C@@H](C)[C@@](O)(O2)C(=O)C(=O)N2CCCC[C@H]2C(=O)O[C@H]([C@H](C)C[C@@H]2CC[C@@H](OCCO)[C@H](OC)C2)CC(=O)[C@H](C)/C=C(\C)[C@@H](O)[C@@H](OC)C(=O)[C@H](C)C[C@H](C)/C=C/C=C/C=C/1C [everolimus] (first compound 0.0001 µM, partner dose 0.02 µM)	602%	229%	130%	2180%		729%			1570%	648%
C[C@]1(O)C[C@@H](c2nc(-c3ccc4ccc(-c5ccccc5)nc4c3)c3c(N)nccn32)C1 + CO[C@H]1C[C@@H]2CC[C@@H](C)[C@@](O)(O2)C(=O)C(=O)N2CCCC[C@H]2C(=O)O[C@H]([C@H](C)C[C@@H]2CC[C@@H](OCCO)[C@H](OC)C2)CC(=O)[C@H](C)/C=C(\C)[C@@H](O)[C@@H](OC)C(=O)[C@H](C)C[C@H](C)/C=C/C=C/C=C/1C [everolimus] (first compound 0.4 µM, partner dose 0.02 µM)	62.5%	82.8%	76.5%	287%		193%			991%	425%
CN(c1ncccc1CNc1nc(Nc2ccc3c(c2)CC(=O)N3)ncc1C(F)(F)F)S(C)(=O)=O + CO[C@H]1C[C@@H]2CC[C@@H](C)[C@@](O)(O2)C(=O)C(=O)N2CCCC[C@H]2C(=O)O[C@H]([C@H](C)C[C@@H]2CC[C@@H](OCCO)[C@H](OC)C2)CC(=O)[C@H](C)/C=C(\C)[C@@H](O)[C@@H](OC)C(=O)[C@H](C)C[C@H](C)/C=C/C=C/C=C/1C [everolimus] (first compound 0.08 µM, partner dose 0.02 µM)	115%	142%	141%	168%		55.5%			343%	77.2%
CN(c1ncccc1CNc1nc(Nc2ccc3c(c2)CC(=O)N3)ncc1C(F)(F)F)S(C)(=O)=O + CC(=O)c1c(C)c2cnc(Nc3ccc(N4CCNCC4)cn3)nc2n(C2CCCC2)c1=O [palbociclib] (first compound 0.08 µM, partner dose 0.04 µM)	139%	81.6%	114%	55.4%		53.5%			116%	
Cn1cnc2c(F)c(Nc3ccc(Br)cc3Cl)c(C(=O)NOCCO)cc21 [selumetinib] + O=C(O)c1ccc2c(c1)nc(Nc1cccc(Cl)c1)c1ccncc12 [CX4945] (first compound 0.015 µM, partner dose 0.4 µM)	153%	187%	218%	40.8%		33%			112%	
CC(=O)O[C@@]12CO[C@@H]1C[C@H](O)[C@@]1(C)C(=O)[C@H](O)C3=C(C)[C@@H](OC(=O)[C@H](O)[C@@H](NC(=O)OC(C)(C)C)c4ccccc4)C[C@@](O)([C@@H](OC(=O)c4ccccc4)[C@H]21)C3(C)C [Docetaxel] + CC(C)C[C@H](NC(=O)[C@H](Cc1ccccc1)NC(=O)c1cnccn1)B(O)O [Bortezomib] (first compound 0.0001 µM, partner dose 0.001 µM)	873%	302%	77.3%	655%		261%			531%	
NC1(c2ccc(-c3nc4ccn5c(=O)[nH]nc5c4cc3-c3ccccc3)cc2)CCC1 + Nc1nc(F)nc2c1ncn2[C@@H]1O[C@H](CO)[C@@H](O)[C@@H]1O [fludarabine] (first compound 0.4 µM, partner dose 0.2 µM)	215%	51.4%	89.8%	116%	285%	1940%			1090%	
NC(=O)c1ccc(N(C(N)=O)c2c(F)cccc2F)nc1-c1ccc(F)cc1F + CCc1ccc(CCOc2ccc(CC3SC(=O)NC3=O)cc2)nc1 [pioglitazone] (first compound 0.4 µM, partner dose 2 µM)	24.6%	75.4%	110%	65.4%		34.1%	67.9%	243%	63.1%	

Reprinted from the listing (four entries):
Compound	cleaved PARP positive nuclei fraction [1]	cleaved PARP positive nuclei fraction [2]	cleaved PARP positive nuclei fraction [3]	cleaved PARP positive nuclei fraction [4]	cleaved PARP positive nuclei fraction [5]	cleaved PARP positive nuclei fraction [6]	cleaved PARP positive nuclei fraction [7]	cleaved PARP positive nuclei fraction [8]	cleaved PARP positive nuclei fraction [9]	cleaved PARP positive nuclei fraction [10]
CCN(CC)CCNC(=O)c1c(C)[nH]c(/C=C2\C(=O)Nc3ccc(F)cc32)c1C [sunitinib] + CO[C@H]1C[C@@H]2CC[C@@H](C)[C@@](O)(O2)C(=O)C(=O)N2CCCC[C@H]2C(=O)O[C@H]([C@H](C)C[C@@H]2CC[C@@H](OCCO)[C@H](OC)C2)CC(=O)[C@H](C)/C=C(\C)[C@@H](O)[C@@H](OC)C(=O)[C@H](C)C[C@H](C)/C=C/C=C/C=C/1C [everolimus] (first compound 0.4 µM, partner dose 0.02 µM)	173%	105%	214%	371%		104%			481%	131%
CC(=O)O[C@@]12CO[C@@H]1C[C@H](O)[C@@]1(C)C(=O)[C@H](O)C3=C(C)[C@@H](OC(=O)[C@H](O)[C@@H](NC(=O)OC(C)(C)C)c4ccccc4)C[C@@](O)([C@@H](OC(=O)c4ccccc4)[C@H]21)C3(C)C [Docetaxel] + Cc1cc([N+](=O)[O-])ccc1NS(=O)(=O)c1cc(Cl)ccc1Cl [FH535] (first compound 0.0001 µM, partner dose 1 µM)	110%	349%	103%	324%	485%	51.6%	87.1%	163%	498%	
CCCCCCCCc1ccc(CCC(N)(CO)CO)cc1 [fingolimod] + CO[C@H]1C[C@@H]2CC[C@@H](C)[C@@](O)(O2)C(=O)C(=O)N2CCCC[C@H]2C(=O)O[C@H]([C@H](C)C[C@@H]2CC[C@@H](OCCO)[C@H](OC)C2)CC(=O)[C@H](C)/C=C(\C)[C@@H](O)[C@@H](OC)C(=O)[C@H](C)C[C@H](C)/C=C/C=C/C=C/1C [everolimus] (first compound 2 µM, partner dose 0.02 µM)	72.8%	147%	251%	319%		53.5%			517%	112%
NC1(c2ccc(-c3nc4ccn5c(=O)[nH]nc5c4cc3-c3ccccc3)cc2)CCC1 + Nc1ccn([C@@H]2O[C@H](CO)[C@@H](O)C2(F)F)c(=O)n1 [gemcitabine] (first compound 0.4 µM, partner dose 0.0004 µM)	129%	101%	115%	143%		88.9%			112%	104%
